Experimental data taken from patent publication US20080221127A1, “PPAR ACTIVE COMPOUNDS” (Plexxikon Inc, priority 2007, published 2008).
Some entries share one result that the patent states for a list of compounds.

Test system: PPARα, PPARγ or PPARδ
Experiment: PPAR activity assays (biochemical and cell based)
Settings: at least one of these assays, or a similar assay, for at least one of PPARα

Structure (SMILES): COc1cc(CC(=O)O)cc(Oc2cccc(-c3cccc(F)c3F)c2)c1 [P-0101, [3-(2′,3′-Difluoro-biphenyl-3-yloxy)-5-methoxy-phenyl]-acetic acid]
- EC50: ≤ 1 µM
